Measured values published in patent US20190367426A1, “LIQUID UREASE INHIBITOR FORMULATIONS” (YARA INTERNATIONAL ASA, priority 2017, published 2019).

Assay: Odour of nBTPT sources as such and applied onto urea granules
Settings: qualitative

For `CCCCNP(N)(N)=S` [nBTPT powder, N-(n-butyl)thiophosphoric triamide], the Smell from granules (applied onto urea granules in a concentration of 500 ppm) was “none” and the “Smell of the nBTPT formulation” value (nBTPT source as such) was “strong”.
